## Primary screen of a compound library

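Viability assay of Plasmodium falciparum sporozoites; the read-out is not stated. The concentration is filed as 10 mM, unlikely as a test dose, so the dose is not known. Direction is inferred from retests: higher values go with lower viability. Strong results were mostly tested again. Size under these conditions: about 34,000 compounds, about 280 of them at 50% or above in at least one test.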

Results are given as percent effect. The controls that fix the scale are not given in the record; negative values are as filed. Compounds were drawn at random from those tested, without regard to their results. Two or more numbers in one place are separate tests of the same structure; such repeats can differ widely.

| # | structure | Percent Effect |
|---|---|---|
| 1 | `NC(=O)C1CCN(C(=O)NCCNc2ccccn2)CC1` | -9.741% |
| 2 | `COc1ccc(Cl)cc1CS(=O)(=O)Cc1noc(C)n1` | 18.07% |
| 3 | `Fc1cccc(CN2CCC(c3noc(-c4ccccn4)n3)CC2)c1F` | 5.183% |
| 4 | `N#Cc1cccc(OCCCN2CCN(C(=O)c3ccoc3)CC2)c1` | -7.008% |
| 5 | `O=C(O)C(F)(F)F.O=C(O)C(F)(F)F.[H][C@@]12CCN(Cc3ccncc3)C[C@@]1([H])O[C@@H](C(=O)NCCOC)C2` | 3.035% |
| 6 | `O=C(CCc1ccncc1)NCc1csc(Br)c1` | 0.4051% |
| 7 | `NCc1cn(-c2ccccc2C(=O)NCc2ccccc2)cn1` | 11.31% |
| 8 | `COc1ccc(C)cc1C(=O)NC(CC(=O)O)c1cccs1` (stereo not shown) | 11.1% |
| 9 | `O=C(c1cc[nH]n1)N1CCCC1c1cncc(CN2CCOCC2)n1` (stereo not shown) | -3.7% |
| 10 | `Cc1cnn(CCNCc2nnc(-c3occc3C)o2)c1` | 14.04% |
| 11 | `CC(=O)N1CCCC2(C1)CN(C(=O)c1ccncc1)CCO2` (stereo not shown) | -6.443% |
| 12 | `CN(C)C(=O)CN1C(=O)CCC12CCN(Cc1ccc(F)cc1)CC2.O=C(O)C(F)(F)F` | 2.489% |
| 13 | `O=C(O)C(F)(F)F.O=C(O)C(F)(F)F.O=C(O)C(F)(F)F.c1cnc(NCc2noc3c2CN(CCN2CCCC2)CC3)nc1` | -1.19% |
| 14 | `COCCN1CCCn2c(nc(CNC(=O)COC)cc2=O)C1.O=C(O)C(F)(F)F` | 18.56% |
| 15 | `COc1ccccc1CN(C)c1nccc(-c2cn(C)nc2C)n1` | 9.442% |
| 16 | `CN(C)C1(CNc2nccc(C3CCCC3)n2)CCOCC1` | -17.02% |
| 17 | `CN1CC2(CCNCC2)CC1C(=O)NCCCNc1cccnc1` (stereo not shown) | 10.26% |
| 18 | `[H][C@]12CC[C@@]3(N=C(C)NC3=O)[C@@]1([H])CN(C(=O)NCCc1ccccc1)C2` | 2.735% |
| 19 | `CCc1nc(C2CCCN(C(=O)c3ccncc3)C2)no1` (stereo not shown) | -58.46% & -72.11% & -6.701% |
| 20 | `[H][C@@]12COC[C@]1(COc1ccc(C#N)cn1)CN(c1ncccn1)C2` | 4.047% |
| 21 | `COCc1nc2n(n1)CCCC2Nc1nc(C2CC2)ns1` (stereo not shown) | 3.648% |
| 22 | `Cc1nn(C)c(N(C)C)c1CNC(C)c1cccc(OC(C)C)c1` (stereo not shown) | 0.5333% |
| 23 | `Cc1nnc(CSc2n[nH]c(-c3ccccn3)n2)o1` | -7.135% |
| 24 | `Cc1cc(Cc2ccccc2F)cc(C2CCCNC2)n1` (stereo not shown) | 13.8% |
| 25 | `O=C(O)C(F)(F)F.[H][C@@]12CN(Cc3ccc(C)cc3)C[C@]1([H])CN(C(=O)c1cccn1C)C2` | 12.17% |
| 26 | `O=C(C1CC(=O)N(c2n[nH]c3cc(Br)ccc23)C1)N1CCCC1` (stereo not shown) | -7.418% |
| 27 | `CCOc1ccc(Br)cc1S(=O)(=O)N(CC)Cc1ccc(N(C)C)cc1` | -7.962% & -5.16% |
| 28 | `[H][C@@]12OCCN(S(=O)(=O)C3CC3)[C@@]1([H])CC[C@H]2OCC1CCCC1` | -3.355% |
| 29 | `Cc1cc(C)n(C2CN(CCC(=O)NC3CCCCC3)C2)n1` | -0.4038% |
| 30 | `Cc1n[nH]/c(=N\C(=O)c2c3c(nc4onc(C)c24)CCC3)s1` | -3.571% |
| 31 | `COc1ccc(CC(=O)N2CCCN(c3ccc(C#N)cc3)CC2)cc1` | -3.044% |
| 32 | `COC(=O)c1cc(C(=O)N2CCOC(C)(C)C2)n(-c2ccccc2)n1` | -0.8937% |
| 33 | `Cc1nc(C)n(C2CCCN(C(=O)c3ccc4[nH]nnc4c3)C2)n1` (stereo not shown) | -13.85% |
| 34 | `COC(=O)C1Cc2nc[nH]c2CN1Cc1ccc(Sc2ncccn2)o1` (stereo not shown) | -14.15% |
| 35 | `CCN(C)S(=O)(=O)NCC(O)c1cc2ccccc2s1` (stereo not shown) | 1.088% |
| 36 | `CN1CCN(CC2CN(CC3CC3)Cc3nccn3C2)CC1.O=C(O)C(F)(F)F.O=C(O)C(F)(F)F.O=C(O)C(F)(F)F` (stereo not shown) | -9.394% |
| 37 | `CC(C)C(=O)N1CCN(C(=O)CCc2nnc(-c3ccccc3)o2)CC1` | -8.141% |
| 38 | `c1ccc(CCN2CCN(C3CCOC4(CCOCC4)C3)CC2)cc1` (stereo not shown) | 6.446% |
| 39 | `CCc1csc(C2CCCN(C(=O)c3ccc(OC)nn3)C2)n1` (stereo not shown) | -0.3271% |
| 40 | `N#Cc1ccc(NC(=O)N2CCCCC2CN2CCCC2=O)cc1` (stereo not shown) | -0.1112% |
| 41 | `N#Cc1ccc(CNCCn2cccn2)c(F)c1` | 10.1% |
| 42 | `CC(C)(C)c1ccc(S(=O)(=O)CCNC(=O)c2cnccn2)cc1` | 11.28% |
| 43 | `Cn1cc(C(=O)NCc2cn3c(n2)CN(Cc2ccccn2)CC3)cn1.O=C(O)C(F)(F)F.O=C(O)C(F)(F)F` | -12.4% |
| 44 | `Cn1cc(CCC(=O)NS(=O)(=O)N2CCCc3ccccc32)cn1` | 95.69% & 93.95% & 93.94% |
| 45 | `O=C(Cc1ccccc1)N1CCOC(c2nc(-c3ncccn3)no2)C1` (stereo not shown) | 2.748% |
| 46 | `Cc1cccc(C)c1OC1CCN(Cc2ccn(C)c(=O)c2)CC1` | 12.36% |
| 47 | `O=C(CCN1CCCC1c1cccc2c1OCCO2)N1CCOCC1` (stereo not shown) | 10.05% |
| 48 | `CCc1nccn1C1CCCN(C(=O)c2cccc3c2OCO3)C1` (stereo not shown) | 7.229% |
| 49 | `Cc1csc(N2CCCN(C(=O)c3ccoc3C)CC2)n1` | -3.549% |
| 50 | `COc1ncc(C2(O)CCN(Cc3cccc(F)c3F)CC2)c(OC)n1.Cl` | 6.695% |

Source: ChEMBL document CHEMBL3988442, “University of Dundee, Small-Polar-MMV Screening Library” (2021).